One substance from paper PMC7852560 (Neuropsychopharmacology, 2020) can be followed below.

By UniProt entry, the sequences of proteins in these tests, tags left out.
UniProt P21554: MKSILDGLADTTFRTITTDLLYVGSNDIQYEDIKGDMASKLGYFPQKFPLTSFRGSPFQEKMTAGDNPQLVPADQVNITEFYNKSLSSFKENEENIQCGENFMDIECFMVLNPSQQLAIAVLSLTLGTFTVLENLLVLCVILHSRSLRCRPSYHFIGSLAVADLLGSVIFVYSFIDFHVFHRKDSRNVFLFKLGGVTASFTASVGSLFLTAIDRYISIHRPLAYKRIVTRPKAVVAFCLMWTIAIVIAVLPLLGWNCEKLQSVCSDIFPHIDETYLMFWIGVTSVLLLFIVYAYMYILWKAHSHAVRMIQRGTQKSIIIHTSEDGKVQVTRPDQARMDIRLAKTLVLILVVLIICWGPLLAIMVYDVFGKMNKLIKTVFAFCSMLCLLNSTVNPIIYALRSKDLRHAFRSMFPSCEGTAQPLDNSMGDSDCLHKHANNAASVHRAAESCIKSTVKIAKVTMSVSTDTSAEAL
UniProt P32121: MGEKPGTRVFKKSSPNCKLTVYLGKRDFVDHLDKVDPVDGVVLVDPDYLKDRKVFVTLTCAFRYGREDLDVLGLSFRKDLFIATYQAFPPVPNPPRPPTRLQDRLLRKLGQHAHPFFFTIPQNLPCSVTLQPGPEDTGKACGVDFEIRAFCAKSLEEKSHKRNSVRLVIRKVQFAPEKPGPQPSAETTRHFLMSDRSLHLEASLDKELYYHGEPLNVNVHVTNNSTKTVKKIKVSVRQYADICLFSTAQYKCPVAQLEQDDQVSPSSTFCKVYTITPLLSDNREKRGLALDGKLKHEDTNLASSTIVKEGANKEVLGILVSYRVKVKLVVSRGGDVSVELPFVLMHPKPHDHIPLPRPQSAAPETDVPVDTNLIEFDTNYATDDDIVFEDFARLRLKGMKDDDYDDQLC

The experiment deals with cannabinoid CB1 receptor (UniProt P21554). Briefly: split reporter; PathHunter β-arrestin CB1R assay (enzyme fragment complementation) in cells, run by Eurofins Pharma Discovery Services; recruitment stimulated by the agonist CP55,940; ABM300 added at the EC80 of CP55,940 (10 nM) reduced it.

No constants are given. Whether binding was seen depends on the method and setting. In cells and extracts the contact can be indirect. Some binding calls cover weakened binding; strength is not graded here.

Turning to β-arrestin2 (from UniProt P32121 1-409), the binding entry is listed as “binds”.
